Measurements published in patent publication US20030007975A1.
No constants are given. Whether binding was seen depends on the method and setting. Binding seen in cells or lysates may run through a third protein. Some results given as binding are weak or reduced against the parent protein; the word gives no strength.

Sequences of proteins named here, by UniProt entry; tags and fusion partners are left off. A change or cut given only in a name is not applied to a line headed by its entry.
UniProt Q02099: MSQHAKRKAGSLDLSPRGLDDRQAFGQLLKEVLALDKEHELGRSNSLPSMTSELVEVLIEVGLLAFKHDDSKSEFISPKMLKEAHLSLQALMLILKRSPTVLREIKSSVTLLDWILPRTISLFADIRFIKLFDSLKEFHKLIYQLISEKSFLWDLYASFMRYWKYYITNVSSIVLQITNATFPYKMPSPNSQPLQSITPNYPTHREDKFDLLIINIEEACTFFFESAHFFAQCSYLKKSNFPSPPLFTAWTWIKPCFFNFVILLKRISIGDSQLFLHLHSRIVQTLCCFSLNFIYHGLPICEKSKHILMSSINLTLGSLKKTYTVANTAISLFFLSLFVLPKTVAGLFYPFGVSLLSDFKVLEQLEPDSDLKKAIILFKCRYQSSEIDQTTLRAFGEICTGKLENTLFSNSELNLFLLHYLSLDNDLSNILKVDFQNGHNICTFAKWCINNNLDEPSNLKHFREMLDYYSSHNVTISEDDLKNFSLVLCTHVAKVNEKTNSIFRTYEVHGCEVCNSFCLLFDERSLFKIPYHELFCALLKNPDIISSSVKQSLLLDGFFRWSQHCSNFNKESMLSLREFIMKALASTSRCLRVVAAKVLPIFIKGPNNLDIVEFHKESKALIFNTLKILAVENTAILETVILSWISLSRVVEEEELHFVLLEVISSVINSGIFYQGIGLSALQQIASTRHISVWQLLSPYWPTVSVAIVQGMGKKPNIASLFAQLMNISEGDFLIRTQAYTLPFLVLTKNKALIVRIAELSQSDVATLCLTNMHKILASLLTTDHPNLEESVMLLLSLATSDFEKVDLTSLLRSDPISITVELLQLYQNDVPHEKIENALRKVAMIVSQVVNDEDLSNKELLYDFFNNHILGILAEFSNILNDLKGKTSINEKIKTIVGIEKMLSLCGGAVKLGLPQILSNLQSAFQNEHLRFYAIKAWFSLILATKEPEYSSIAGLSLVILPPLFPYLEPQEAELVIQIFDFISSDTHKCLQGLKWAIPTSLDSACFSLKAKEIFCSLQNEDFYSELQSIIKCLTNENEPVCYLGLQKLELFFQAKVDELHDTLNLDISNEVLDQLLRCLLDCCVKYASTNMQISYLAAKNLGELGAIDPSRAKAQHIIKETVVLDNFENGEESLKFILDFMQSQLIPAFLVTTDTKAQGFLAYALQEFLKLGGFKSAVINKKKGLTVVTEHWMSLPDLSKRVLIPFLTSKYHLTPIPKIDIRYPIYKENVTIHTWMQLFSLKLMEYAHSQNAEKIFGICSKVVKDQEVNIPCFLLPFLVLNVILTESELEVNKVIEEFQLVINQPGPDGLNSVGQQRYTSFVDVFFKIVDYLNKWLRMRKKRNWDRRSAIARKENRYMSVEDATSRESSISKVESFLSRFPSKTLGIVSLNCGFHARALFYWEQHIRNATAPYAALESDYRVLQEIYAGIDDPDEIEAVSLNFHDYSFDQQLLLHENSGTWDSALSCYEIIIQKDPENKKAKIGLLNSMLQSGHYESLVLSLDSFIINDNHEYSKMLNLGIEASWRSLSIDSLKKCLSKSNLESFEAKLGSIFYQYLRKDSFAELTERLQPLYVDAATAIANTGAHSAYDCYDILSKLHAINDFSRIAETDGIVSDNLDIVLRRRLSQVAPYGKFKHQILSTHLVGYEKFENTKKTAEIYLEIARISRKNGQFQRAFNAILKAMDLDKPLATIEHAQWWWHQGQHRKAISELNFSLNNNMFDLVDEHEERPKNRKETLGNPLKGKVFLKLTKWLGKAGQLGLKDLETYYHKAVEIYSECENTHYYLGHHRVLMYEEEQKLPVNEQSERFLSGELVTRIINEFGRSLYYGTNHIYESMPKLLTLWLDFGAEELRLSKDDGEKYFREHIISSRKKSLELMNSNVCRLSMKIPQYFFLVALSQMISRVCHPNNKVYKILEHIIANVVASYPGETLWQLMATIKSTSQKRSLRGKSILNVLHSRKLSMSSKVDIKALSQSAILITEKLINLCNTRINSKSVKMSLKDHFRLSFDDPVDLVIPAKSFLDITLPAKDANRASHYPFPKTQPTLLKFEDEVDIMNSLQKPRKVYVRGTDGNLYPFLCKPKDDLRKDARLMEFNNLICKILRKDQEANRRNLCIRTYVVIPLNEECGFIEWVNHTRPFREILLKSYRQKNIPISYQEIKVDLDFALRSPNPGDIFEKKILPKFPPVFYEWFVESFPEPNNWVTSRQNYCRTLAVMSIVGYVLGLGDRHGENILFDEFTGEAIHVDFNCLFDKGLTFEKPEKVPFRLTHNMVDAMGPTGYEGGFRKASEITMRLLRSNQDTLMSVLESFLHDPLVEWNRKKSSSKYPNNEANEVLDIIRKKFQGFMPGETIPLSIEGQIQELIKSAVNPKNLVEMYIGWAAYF
UniProt Q13535: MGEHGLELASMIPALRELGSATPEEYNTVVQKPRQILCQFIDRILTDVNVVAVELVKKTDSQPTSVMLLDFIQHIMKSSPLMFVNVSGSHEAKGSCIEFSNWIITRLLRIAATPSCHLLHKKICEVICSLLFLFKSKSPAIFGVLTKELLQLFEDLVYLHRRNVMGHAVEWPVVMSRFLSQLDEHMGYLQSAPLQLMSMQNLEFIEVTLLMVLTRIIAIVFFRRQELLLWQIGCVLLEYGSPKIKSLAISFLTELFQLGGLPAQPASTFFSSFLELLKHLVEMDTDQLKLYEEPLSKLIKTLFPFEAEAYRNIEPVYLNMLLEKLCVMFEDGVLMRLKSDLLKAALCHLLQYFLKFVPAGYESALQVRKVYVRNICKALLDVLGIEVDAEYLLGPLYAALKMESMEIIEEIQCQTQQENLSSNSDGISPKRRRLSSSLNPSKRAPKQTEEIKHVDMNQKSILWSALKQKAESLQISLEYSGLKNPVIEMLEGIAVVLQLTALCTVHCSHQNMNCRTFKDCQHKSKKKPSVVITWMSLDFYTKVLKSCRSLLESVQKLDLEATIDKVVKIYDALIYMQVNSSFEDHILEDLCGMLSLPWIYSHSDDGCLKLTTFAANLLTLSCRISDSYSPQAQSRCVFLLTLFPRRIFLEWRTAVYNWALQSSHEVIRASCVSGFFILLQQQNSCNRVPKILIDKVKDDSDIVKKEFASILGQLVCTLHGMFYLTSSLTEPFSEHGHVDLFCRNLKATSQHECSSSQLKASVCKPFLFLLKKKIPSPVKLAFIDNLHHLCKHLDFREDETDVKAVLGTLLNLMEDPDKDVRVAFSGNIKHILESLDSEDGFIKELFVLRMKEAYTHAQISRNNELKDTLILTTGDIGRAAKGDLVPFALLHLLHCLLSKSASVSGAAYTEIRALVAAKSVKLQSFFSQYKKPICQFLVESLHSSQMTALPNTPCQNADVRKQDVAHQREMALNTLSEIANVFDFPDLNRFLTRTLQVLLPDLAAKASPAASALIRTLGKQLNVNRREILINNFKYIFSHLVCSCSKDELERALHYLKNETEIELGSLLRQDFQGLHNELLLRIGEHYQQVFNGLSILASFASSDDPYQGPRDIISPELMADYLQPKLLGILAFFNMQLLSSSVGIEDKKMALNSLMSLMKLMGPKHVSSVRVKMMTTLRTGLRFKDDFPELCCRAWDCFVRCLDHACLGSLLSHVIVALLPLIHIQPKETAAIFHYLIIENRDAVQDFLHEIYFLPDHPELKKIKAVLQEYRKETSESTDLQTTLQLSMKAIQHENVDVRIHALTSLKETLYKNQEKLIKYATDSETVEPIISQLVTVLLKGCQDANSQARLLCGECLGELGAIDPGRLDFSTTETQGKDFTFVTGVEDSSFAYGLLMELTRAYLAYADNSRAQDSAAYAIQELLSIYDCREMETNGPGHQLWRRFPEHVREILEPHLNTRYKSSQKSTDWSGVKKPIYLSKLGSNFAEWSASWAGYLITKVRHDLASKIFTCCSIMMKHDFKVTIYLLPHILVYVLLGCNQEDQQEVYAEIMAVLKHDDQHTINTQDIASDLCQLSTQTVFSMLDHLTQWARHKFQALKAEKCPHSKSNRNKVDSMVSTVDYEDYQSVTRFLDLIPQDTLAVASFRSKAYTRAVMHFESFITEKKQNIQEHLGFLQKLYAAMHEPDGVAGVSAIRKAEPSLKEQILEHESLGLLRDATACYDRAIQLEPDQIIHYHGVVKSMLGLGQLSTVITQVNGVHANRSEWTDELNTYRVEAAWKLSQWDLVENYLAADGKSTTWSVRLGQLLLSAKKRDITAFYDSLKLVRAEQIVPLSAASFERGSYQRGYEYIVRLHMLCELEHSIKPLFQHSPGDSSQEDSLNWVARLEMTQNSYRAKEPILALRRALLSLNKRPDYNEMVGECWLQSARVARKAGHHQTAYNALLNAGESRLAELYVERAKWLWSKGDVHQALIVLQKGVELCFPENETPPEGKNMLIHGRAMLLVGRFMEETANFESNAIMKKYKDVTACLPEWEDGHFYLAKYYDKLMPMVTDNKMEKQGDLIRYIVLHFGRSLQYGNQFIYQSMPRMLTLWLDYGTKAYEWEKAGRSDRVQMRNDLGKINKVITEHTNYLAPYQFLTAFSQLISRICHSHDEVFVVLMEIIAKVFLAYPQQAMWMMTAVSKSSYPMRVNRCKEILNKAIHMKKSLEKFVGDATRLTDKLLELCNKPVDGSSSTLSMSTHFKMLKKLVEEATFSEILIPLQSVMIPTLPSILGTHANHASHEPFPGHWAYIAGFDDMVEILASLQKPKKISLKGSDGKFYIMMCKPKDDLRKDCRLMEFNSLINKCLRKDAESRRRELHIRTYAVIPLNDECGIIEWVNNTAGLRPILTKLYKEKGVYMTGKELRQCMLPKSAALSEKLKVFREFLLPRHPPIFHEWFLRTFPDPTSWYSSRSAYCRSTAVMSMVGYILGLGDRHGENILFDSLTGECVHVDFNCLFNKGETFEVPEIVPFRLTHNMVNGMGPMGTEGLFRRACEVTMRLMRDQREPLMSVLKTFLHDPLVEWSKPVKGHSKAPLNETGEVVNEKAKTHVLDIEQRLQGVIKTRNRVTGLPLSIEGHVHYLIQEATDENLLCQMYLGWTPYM

Legend:
[1] = target: myc-tagged S. pombe Rad3 (full length Rad3 with two myc epitope tags at the N terminus) (Schizosaccharomyces pombe) (UniProt Q02099); assay: reciprocal co-immunoprecipitation from S. pombe cells expressing both tagged constructs
[2] = target: myc-tagged S. pombe Rad3 (full length Rad3 with two myc epitope tags at the N terminus) (Schizosaccharomyces pombe) (UniProt Q02099); assay: reciprocal co-immunoprecipitation from S. pombe cells expressing ATR and myc-tagged Rad3

| binding [1] | binding [2] | Substance |
| --- | --- | --- |
| binds |  | HA tagged S. pombe Rad3 (full length Rad3 with a triple HA epitope tag at the N terminus) (from UniProt Q02099 1-2386) (enzyme) |
|  | binds | human ATR protein (from UniProt Q13535 1-2644) (enzyme) |
